Drawing on PMC6751184, “Heme and hemoglobin utilization by Mycobacterium tuberculosis” (Nature Communications, 2019), this text covers binding for 1 substance.

Results are given in words; binding and its absence hold for the method and conditions named.

This assay addresses DppA W442A of Mycobacterium tuberculosis, lacking the predicted signal peptide (M. tuberculosis) (UniProt A5U8Y9). The experiment in a line: SEC; both purified. For orientation: In gel filtration, larger molecules generally elute earlier.

Turning to “DppA W442A of Mycobacterium tuberculosis, lacking the predicted signal peptide (from UniProt A5U8Y9 26-541)”, the binding result was “no binding”.
